Our source for the binding values is patent publication US20190071505A1 (UNIVERSITY OF NORTH TEXAS HEALTH SCIENCE CENTER, published 2019).

No constants are given. Whether binding was seen depends on the method and setting. Some binding calls cover weakened binding; strength is not graded here.

The target of experiment [1] is T1, Lectin-like transcript 1 (LLT1) (human, UniProt Q9UHP7 1-191).
T1 construct: Type II transmembrane protein; In the assays it stood on LLT1-transfected K562 cells or was endogenous on human prostate and breast cancer cell lines and tissues; also called OCIL; CLEC2D
T1 sequence: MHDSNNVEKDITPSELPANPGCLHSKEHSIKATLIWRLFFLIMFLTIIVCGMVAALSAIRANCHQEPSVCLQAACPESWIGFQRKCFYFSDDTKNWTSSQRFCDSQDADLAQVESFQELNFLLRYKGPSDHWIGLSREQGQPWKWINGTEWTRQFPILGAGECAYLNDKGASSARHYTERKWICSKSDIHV
The experiment is described as follows: flow cytometry on DU145 prostate cancer cells, against isotype IgG2a. In general terms: Flow cytometry measures light scatter and fluorescence of single cells or particles in a stream.

The target of experiment [2] is T1, Lectin-like transcript 1 (LLT1). Put plainly: flow cytometry on LLT1-transfected K562 cells, against isotype IgG2a.

B1: mouse anti-human LLT1 mAb (clone 3G1) (antibody, V domains shown)
VH: EVQLQQSGPELVKPGASVKISCKASGYSFTGNYMHWVKQSPENSLEWIGEINIRTGYISYNQKFKGKATLTVDKSSSTAYMQLKSLTSEESAVYYCTRSAYWGQGTLVTVSA
VL: DIKMTQSPSSMYTSLGERVTITCKASQDIKSYLSWFQQKPGKSPKTLIYRANRLGDGVPSRVSGSGSGQDYSLTIGSLEYEDMGIYYCLQYAEFPRTFGGGTKLEIRR
On to B1, for which the binding entry in experiment [1] and in experiment [2] was “binds” each time.
